Data taken from patent publication US7686852B2, “Monoazo dyes” (Clariant Finance (BVI) Limited, priority 2004, dated 2010).
Marks after values point to notes of the source that are not given here.

What was measured:
[1] = Perspiration fastness ISO105-E04, staining of adjacent fabric; details: Nylsuisse-Tricot dyed per Use Example A to 3×1/1 Standard Depth=1.80%; alkaline perspiration pH 8; Grey Scale staining ISO 105-A03, ratings 5 to 1
Protocol: (§1) A Nylsuisse-Tricot was dyed according to Use Example A (see below) to 3×1/1 Standard Depth=1.80% and the following tests have been performed:
The test specimen and adjacent fabrics were thoroughly wet out in an alkaline perspiration solution containing:
0.5 g 1-histidine monohydrochloride monohydrate
(§2) 2.5 g disodium hydrogen phosphate dihydrate (adjust to pH 8 with 1 n caustic soda) per litre at room temperature and liquor ratio 50:1 and left for 30 min, the excess solution was poured off, the test specimen were placed between 2 glass plates under a pressure of 12.5 kPa (5 kg/40 cm2) and placed in a drying oven for 4 h at 37° C. Without rinsing, the samples were hung to dry in warm air at max. 60° C. Domestic Laundering ISO 105-C06/B2S, 50° C. and Domestic Laundering ISO 105-C06/B2S, 60° C.:
(§3) Evaluation According to Grey Scale Staining ISO 105-A03
(§4) For the evaluation a 5-step Grey Scale was used consisting of 5 pairs of swatches of grey and white cloth which illustrate the perceived colour differences corresponding to fastness ratings 5, 4, 3, 2 and 1. The fastness assessment or rating corresponds to that number of the Grey Scale which is closest to the perceived colour distance between the original adjacent fabric and the treated adjacent fabric. (midway between two adjacent steps=intermediate rating e.g. 2-3)

[2] = Hot water 70° C. fastness ISO 105-E08, staining of adjacent fabric; details: wool gabardine dyed per Use Example C to 3×1/1 standard depth=2.25%, Grey Scale staining ISO 105-A03
Description: as §3, §4
(§5) A wool gabardine was dyed according to Use Example C (see below) to 3×1/1 standard depth=2.25% and the following tests have been performed:
the test specimen and adjacent fabrics were rolled tightly round a glass rod, a yarn was loosely wound over them and treat for 30 min at 70° C. in slightly acid water (pH 6 with acetic acid), liquor ratio 30:1. The test specimen was removed from glass rod, squeezed and was hung without rinsing to dry in warm air at max. 60° C. Assessment: Adjacent fabric: Staining according to ISO 105-A03 (see above)

[3] = Domestic laundering fastness ISO 105-C06/B2S, staining of adjacent fabric; details: Nylsuisse-Tricot dyed to 3×1/1 Standard Depth=1.80%, Grey Scale staining ISO 105-A03
Protocol: as §1, §2
The test specimen is placed with adjacent undyed fabric in a steel beaker (550 ml volume) and treated with detergent solution (4 g/l ECE phosphate-containing Test Detergent B)) and 1 g/l sodium perborate tetrahydrate, 25 steel balls for 30 minutes in the Launder-Ometer (the total amount of liquor was 150 ml). The sample was rinsed and hang to dry in warm air at max. 60° C.
as §3, §4

[4] = Milling alkaline fastness ISO 105-E12, staining of adjacent fabric; details: wool gabardine dyed to 3×1/1 standard depth=2.25%, Grey Scale staining ISO 105-A03
Description: as §3, §4, §5
Milling Alkaline, ISO 105-E12
the test specimen and adjacent fabrics with 50 stainless steel balls were placed in a steel beaker (550 ml volume). Milling solution (50 g/l soap and 10 g/l anhydrous sodium carbonate) was added at a liquor ratio 3:1 and treated for 2 h at 40° C. in the Launder-Ometer. Then liquor ratio of 100:1 was adjusted with 40° C. warm demineralized water and treated for another 10 min. The test specimen were rinsed in cold demineralized water and then in cold running tapwater for 10 min, squeezed and hung to dry in warm air at max. 60° C. Assessment: Adjacent fabric: Staining according to ISO 105-A03 (see above)

## Cc1cc(OS(=O)(=O)c2ccc(C(C)(C)C)cc2)ccc1/N=N/c1ccc(Nc2ccc(S(=O)(=O)O)cc2[N+](=O)[O-])cc1 [Example 1]
[1]
  rating of PA 66 (mostly stained adjacent fabric), Perspiration ISO105-E04: 3.5
[2]
  rating of mostly stained adjacent fabric, Hot water 70° C., ISO 105-E08: 3.8^1)
[3]
  rating of PA 66 (mostly stained adjacent fabric), Domestic laundering ISO 105-C06/B2S, 50° C.: 2.7
  rating of PA 66 (mostly stained adjacent fabric), Domestic laundering ISO 105-C06/B2S, 60° C.: 1.6
[4]
  rating of mostly stained adjacent fabric, Milling alkaline, ISO 105-E12: 3.4^1)

## Cc1ccc(S(=O)(=O)Oc2ccc(/N=N/c3ccc(Nc4ccc(S(=O)(=O)O)cc4[N+](=O)[O-])cc3)c(C)c2)cc1 [reference compound]
[1]
  rating of PA 66 (mostly stained adjacent fabric), Perspiration ISO105-E04: 2.8
[2]
  rating of mostly stained adjacent fabric, Hot water 70° C., ISO 105-E08: 2.6^1)
[3]
  rating of PA 66 (mostly stained adjacent fabric), Domestic laundering ISO 105-C06/B2S, 50° C.: 2.0
  rating of PA 66 (mostly stained adjacent fabric), Domestic laundering ISO 105-C06/B2S, 60° C.: 1.2
[4]
  rating of mostly stained adjacent fabric, Milling alkaline, ISO 105-E12: 2.2^1)
